From PubChem BioAssay AID504467 (National Center for Advancing Translational Sciences (NCATS), 2011)
Among all 330,000 compounds or so, about 7,700 (2.3%) were called active. Inconclusive results, whose numbers are uncertain, are shown with a selection of clear calls. The call rests on the fitted dose curve; in most records, active means well fitted inhibition curve with a large enough effect; inconclusive means small, poorly fitted or top-dose-only effect, or effect the other way; inactive means flat fitted curve, though single readings scatter. A potency beside an inconclusive call is a rough fit, not a confirmed value.

Experiment: qHTS screen for small molecules that inhibit ELG1-dependent DNA repair in human embryonic kidney (HEK293T) cells expressing luciferase-tagged ELG1; further: nearly all actives have a fitted effect of over 55% in size
Conditions: HEK293T ELG1-luciferase reporter, luminescence, 16 h, DNA damage induced by 5-fluorouridine; activity change, negative = inhibition: at 46.1 µM (top of the series)
How it was run: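 Cells (2,000 per well) received 5-fluorouridine plus test compound or DMSO and were incubated 16 hr at 37 °C, 5% CO2. Luciferase activity was read by luminescence 30 min after ONE-Glo addition; signal suppression marked inhibition of damage-induced ELG1 function.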
On the % scale 0 is the no-effect control and ±100 the full control effect; potency means the concentration at half of the fitted maximal effect.

SMILES | Potency | activity change, negative = inhibition
O=C(Nc1cc2c(cc1Cl)OCCCO2)c1ccc(F)cc1 | inconclusive: 14.6 µM [activator, partial curve] | –
CCCCN(C(=O)c1ccc(N2CCCC2=O)cc1)c1c(N)n(CC(C)C)c(=O)[nH]c1=O | inconclusive: 16.4 µM [activator, single point] | –
COc1ccc(S(=O)(=O)N=Nc2c(O)[nH]c3ccccc23)cc1 | – | inactive: -23.5%
O=[N+]([O-])c1ccc(C2Oc3ccccc3C3CC(c4ccccc4)=NN32)s1 (centres undefined) | inconclusive: 4.11 µM [activator, full curve] | –
O=C(N/N=C/c1ccc(Cl)cc1Cl)c1ccncc1 | – | inactive: 14%
Cn1nnnc1SCCNCc1cccnc1 | inconclusive: 29.1 µM [inhibitor, single point] | –
COc1ccccc1C(=O)NCC(=O)N/N=C/c1cc(Br)ccc1OCc1ccccc1 | active: 7.31 µM | –
CCC(C)NC(=O)COc1ccc(OCc2ccccc2)cc1 (centres undefined) | inconclusive: 23.1 µM [inhibitor, partial curve, poor fit] | –
O=C(N/N=C/c1cn(-c2ccccc2)nc1-c1cccs1)c1ccccc1F | inconclusive: 16.4 µM [inhibitor, single point] | –
Oc1ccc(C[C@H]2CNCCN2CCc2cc(C(F)(F)F)cc(C(F)(F)F)c2)cc1 | – | inactive: 11.5%
Cn1c2c(c(=O)n(C)c1=O)C(C(F)(F)F)(C(F)(F)F)N=C(CCC1CCCCC1)N2 | inconclusive: 29.1 µM [inhibitor, single point] | –
CCCCn1cnc2c([nH]c3cc(OC)ccc32)c1=O | inconclusive: 23.1 µM [activator, partial curve] | –
COc1ccc(CCN2CC(C(=O)NCCc3ccccc3C(F)(F)F)CCC2=O)cc1 (centres undefined) | inconclusive: 18.3 µM [activator, partial curve] | –
O=C(NCCc1ccco1)c1nn(Cc2ccccc2)c(=O)c2ccccc12 | inconclusive: 23.1 µM [inhibitor, single point] | –
S=c1[nH]nc(Cc2cccs2)n1-c1ccccc1 | – | inactive: 4.73%
O=C(COC(=O)c1ccc(O)cc1)Nc1ccccc1-c1ccccc1 | inconclusive: 29.1 µM [inhibitor, single point] | –
Cc1ccc(C(=O)C(C)OC(=O)c2n[nH]c(=O)c3ccccc23)cc1 (centres undefined) | – | inactive: 3.14%
CC(Nc1nc(N2CCCCC2)nc2ccccc12)c1ccccc1 (centres undefined) | inconclusive: 18.4 µM [inhibitor, single point] | –
CCOc1ccc(N(CC(=O)Nc2ccc(Br)cc2)S(C)(=O)=O)cc1 | inconclusive: 18.3 µM [activator, partial curve, poor fit] | –
CCN(CC)S(=O)(=O)c1ccc2oc(Nc3ccccc3)nc2c1 | inconclusive: 11.6 µM [activator, partial curve] | –
Cc1ccc(S(=O)(=O)N(C(=O)c2ccco2)c2cc3sc(=O)oc3c3ccccc23)cc1 | inconclusive: 16.4 µM [inhibitor, single point] | –
CCCC(C)NC(=O)c1cc(S(=O)(=O)N2CCCCCC2)ccc1OC (centres undefined) | – | inactive: 1.41%
CCCN(Cc1ccc(C)cc1)C(=O)c1ccc(CNS(=O)(=O)c2ccc(C(C)=O)cc2)cc1 | inconclusive: 7.08 µM [activator, partial curve, poor fit] | –

SMILES | Potency | activity change, negative = inhibition
COc1cc(NC(=O)C2CCC(CNS(=O)(=O)c3csc(C(N)=O)c3)CC2)cc(OC)c1 (centres undefined) | inconclusive: 11.6 µM [activator, partial curve, poor fit] | –
COC(=O)c1ccc(/C=C2/SC(=S)N(CCCC(=O)Nc3ccc(O)cc3)C2=O)cc1 | – | inactive: -1.73%
CN(CC(=O)Nc1ccc(OC(F)(F)F)cc1)S(=O)(=O)c1cnc[nH]1 | inconclusive: 18.3 µM [activator, partial curve, poor fit] | –
COc1ccc(/C=C/c2nc(-c3ccccc3O)n[nH]2)cc1OC | inconclusive: 2.59 µM [activator, partial curve] | –
Oc1ccccc1-c1nc(N2CCN(Cc3ccccc3)CC2)c2ccccc2n1 | inconclusive: 16.4 µM [activator, partial curve, poor fit] | –
O=C(NCCc1ccccc1)c1ccc2c(c1)OCCCO2 | inconclusive: 0.0116 µM [activator, full curve, poor fit] | –
C=CCn1c(C)nnc1SCC(=O)Nc1oc(C)c2c(C)n[nH]c(=O)c12 | – | inactive: 17.1%
CCOC(=O)C1=CN(Cc2cccc(-c3ccc(F)cc3)c2)S(=O)(=O)N(C)C1C (centres undefined) | inconclusive: 29.1 µM [inhibitor, single point] | –
Fc1ccc(COc2ccc(Br)cc2CNCc2ccncc2)cc1 | inconclusive: 2.06 µM [inhibitor, partial curve] | –
O=C(O)CSc1ncnc2sc3c(c12)CCCC3 | inconclusive: 18.3 µM [inhibitor, single point] | –
COc1ccc(-c2csc(Nc3ccccc3)[n+]2Cc2ccccc2)cc1 | – | inactive: -11.1%
Nc1cc(Nc2ccccc2)ccn1 | – | inactive: -10.8%
CCOC(=O)c1cccc(Nc2nc(C)cc(C)n2)c1 | inconclusive: 10.3 µM [activator, partial curve] | –
Cc1cc(=O)[nH]c2nnc(-c3ccc(Br)cc3)n12 | inconclusive: 2.91 µM [activator, partial curve] | –
S=c1[nH]nc(-c2ccc3ccccc3n2)n1-c1ccccc1Cl | – | inactive: 9.22%
Cc1cccc(NC(=O)CSc2nnnn2C2CCCC2)c1 | – | inactive: 13.5%
O=C(CSc1nnc(-c2ccco2)o1)c1ccccc1Cl | inconclusive: 20.6 µM [activator, single point] | –
O=C(COC(=O)C1CC1)NCCc1ccccc1 | inconclusive: 20.6 µM [activator, partial curve, poor fit] | –
CCOC(=O)c1cc(S(=O)(=O)NCC2CCN(Cc3cccc(C)c3)CC2)cn1C | – | inactive: 8.9%
COc1ccccc1NC(=O)N(Cc1cccs1)Cc1cc2cc3c(cc2[nH]c1=O)OCO3 | inconclusive: 25.9 µM [inhibitor, single point] | –
COc1ccccc1NC(=O)c1ccc2nsnc2c1 | inconclusive: 16.4 µM [activator, partial curve] | –
COc1ccc(-c2cc3nc4c(c(N5CCC6(CC5)OCCO6)n3n2)CCC4)cc1 | inconclusive: 18.3 µM [inhibitor, partial curve, poor fit] | –
Cc1ccc(Nc2nnc(SCc3ccccc3)s2)cc1 | inconclusive: 29.1 µM [activator, single point] | –

An excerpt from further up, for reference:
SMILES | Potency | activity change, negative = inhibition
COc1cc(NC(=O)C2CCC(CNS(=O)(=O)c3csc(C(N)=O)c3)CC2)cc(OC)c1 (centres undefined) | inconclusive: 11.6 µM [activator, partial curve, poor fit] | –
COC(=O)c1ccc(/C=C2/SC(=S)N(CCCC(=O)Nc3ccc(O)cc3)C2=O)cc1 | – | inactive: -1.73%
CN(CC(=O)Nc1ccc(OC(F)(F)F)cc1)S(=O)(=O)c1cnc[nH]1 | inconclusive: 18.3 µM [activator, partial curve, poor fit] | –
COc1ccc(/C=C/c2nc(-c3ccccc3O)n[nH]2)cc1OC | inconclusive: 2.59 µM [activator, partial curve] | –
Oc1ccccc1-c1nc(N2CCN(Cc3ccccc3)CC2)c2ccccc2n1 | inconclusive: 16.4 µM [activator, partial curve, poor fit] | –
O=C(NCCc1ccccc1)c1ccc2c(c1)OCCCO2 | inconclusive: 0.0116 µM [activator, full curve, poor fit] | –
C=CCn1c(C)nnc1SCC(=O)Nc1oc(C)c2c(C)n[nH]c(=O)c12 | – | inactive: 17.1%
CCOC(=O)C1=CN(Cc2cccc(-c3ccc(F)cc3)c2)S(=O)(=O)N(C)C1C (centres undefined) | inconclusive: 29.1 µM [inhibitor, single point] | –
Fc1ccc(COc2ccc(Br)cc2CNCc2ccncc2)cc1 | inconclusive: 2.06 µM [inhibitor, partial curve] | –
O=C(O)CSc1ncnc2sc3c(c12)CCCC3 | inconclusive: 18.3 µM [inhibitor, single point] | –
COc1ccc(-c2csc(Nc3ccccc3)[n+]2Cc2ccccc2)cc1 | – | inactive: -11.1%
Nc1cc(Nc2ccccc2)ccn1 | – | inactive: -10.8%
CCOC(=O)c1cccc(Nc2nc(C)cc(C)n2)c1 | inconclusive: 10.3 µM [activator, partial curve] | –
Cc1cc(=O)[nH]c2nnc(-c3ccc(Br)cc3)n12 | inconclusive: 2.91 µM [activator, partial curve] | –
S=c1[nH]nc(-c2ccc3ccccc3n2)n1-c1ccccc1Cl | – | inactive: 9.22%
Cc1cccc(NC(=O)CSc2nnnn2C2CCCC2)c1 | – | inactive: 13.5%
O=C(CSc1nnc(-c2ccco2)o1)c1ccccc1Cl | inconclusive: 20.6 µM [activator, single point] | –

(further entries)

SMILES | Potency | activity change, negative = inhibition
CCN(CC)c1cccc(OCC(=O)N2c3ccccc3CC2C)c1 (centres undefined) | – | inactive: -15.3%
Cc1cc(=O)oc2cc(OCC(=O)N3CCN(C(=O)C4COc5ccccc5O4)CC3)ccc12 (centres undefined) | active: 1.16 µM | –
C=C(C)CNC(=S)NNC(=O)c1cc(C)oc1C | – | inactive: 19.2%
COc1ccc(NC(=O)Nc2ccc3c(c2)C(=O)N([C@H](C)CO)C[C@H](C)[C@@H](CN(C)C(=O)NC(C)C)O3)cc1 | inconclusive: 18.3 µM [activator, partial curve, poor fit] | –
COc1ccccc1OCCCc1c(C)n[nH]c1C | – | inactive: -2.47%
Cc1cc(-n2c(C)cc(C(=O)CSc3ccccn3)c2C)no1 | inconclusive: 3.26 µM [activator, full curve] | –
CNc1oc(-c2cccs2)nc1C#N | inconclusive: 25.9 µM [activator, partial curve, poor fit] | –
CC(=O)c1ccc(NC2=C(N3CCOCC3)C(=O)c3ccccc3C2=O)cc1 | inconclusive: 20.6 µM [inhibitor, partial curve] | –
C=CCn1c(-c2ccc(N)cc2)nc2ccccc21 | inconclusive: 16.4 µM [activator, partial curve] | –
COc1cccc(NC(=O)CN(C)C(=O)c2c(C)noc2C)c1 | – | inactive: 8.04%
CCOCCCn1c(=O)c(NC(=O)c2ccc(OCC)cc2)c2n(c1=S)CCCCC2 | – | inactive: -9.45%
CCOC(=O)C1CCN(c2ccc(C(N)=O)cc2[N+](=O)[O-])CC1 | – | inactive: -26.4%
COc1cc(/C=C2/SC(=S)N(c3c(C)n(C)n(-c4ccccc4)c3=O)C2=O)ccc1O | – | inactive: -2.6%
CC(=O)C(=Cc1cc(C)n(-c2ccccc2)c1C)C(C)=O | – | inactive: 1.31%
COc1ccccc1-c1nc(-c2cccc(C)c2)no1 | inconclusive: 2.91 µM [activator, partial curve, poor fit] | –
Cc1ccc(COc2ccc(C(=O)NN)cc2)cc1 | inconclusive: 18.3 µM [activator, partial curve, poor fit] | –
Clc1ccc(-n2ncc3c(NCCN4CCOCC4)ncnc32)cc1 | inconclusive: 4.61 µM [activator, partial curve] | –
CCCOc1ccc(-c2c(C(=O)N/N=C(\C)c3ccco3)nnn2-c2nonc2N)cc1 | inconclusive: 11.6 µM [activator, partial curve, poor fit] | –
C/C(=N/NC(=O)c1cccs1)c1ccco1 | inconclusive: 20.6 µM [activator, partial curve] | –
CS(=O)(=O)c1ccc2nc(NC(=O)C3COc4ccccc4O3)sc2c1 (centres undefined) | inconclusive: 13 µM [activator, partial curve] | –
C=CC[C@@H](Cc1ccc(F)cc1)C(=O)OC[C@@H]1CCCN1C(=O)[C@H](CC=C)CC(=O)N(CCO)Cc1ccccc1 | inconclusive: 6.51 µM [inhibitor, partial curve] | –
CCOc1ccc(Nc2oc(-c3cccc(Cl)c3)nc2C#N)cc1 | inconclusive: 4.11 µM [activator, full curve] | –
Cc1ccc(Nc2nc(COC(=O)COc3ccc(C=O)cc3)cs2)cc1 | inconclusive: 18.4 µM [activator, partial curve] | –
